What was measured:
[1] = concentration at which the average person detects the odor; cited from earlier work
[2] = Bench-scale ozone / AOP treatment of tertiary filtered effluent: UV Transmittance; conditions: Ozone Only mode

SMILES | Odor threshold [1] | change in UVT ([2]; dosing levels of 10 mg/l and 15 mg/l) | increase in UVT ([2]; ozone dose of 5 mg/L)
COc1c(Cl)ccc(Cl)c1Cl [2,3,6-trichloroanisole] | 7 ng/L | – | –
O=[O+][O-] [Ozone] | – | decreases in UVT | 5.3%
